{"source": "ChEMBL document CHEMBL1212748", "about": "“Patients with long-term oral carriage harbor high-persister mutants of Candida albicans” (2010)", "system": "Candida albicans", "experiment": "Antimicrobial activity against Candida albicans high-persister mutants after 48 hrs by broth microdilution method", "assay_type": "functional", "data": [{"compound": "C[C@@H]1[C@H](O)[C@@H](C)/C=C/C=C/C=C/C=C/C=C/C=C/C=C/[C@H](O[C@@H]2O[C@H](C)[C@@H](O)[C@H](N)[C@@H]2O)C[C@@H]2O[C@](O)(C[C@@H](O)C[C@@H](O)[C@H](O)CC[C@@H](O)C[C@@H](O)CC(=O)O[C@H]1C)C[C@H](O)[C@H]2C(=O)O", "note": "[AMPHOTERICIN B]", "values": [{"measurement": "MIC", "value": 0.2, "unit": "µg/mL"}]}]}
